Data: PubChem BioAssay AID1794845 (National Center for Advancing Translational Sciences (NCATS), 2023)
Out of some 6,900 compounds screened, fewer than 10 were called active. Calls come from the whole dose curve; as a rule, active = well fitted curve in the direction sought with a large enough effect; inconclusive = small, poorly fitted or top-dose-only effect, or another doubt; inactive = no such curve, though single readings can be large or run the other way. The list shows a part of the results.

Sequences of proteins named here, by UniProt entry; tags and fusion partners are left off. A change or cut given only in a name is not applied to a line headed by its entry.
UniProt C7C422: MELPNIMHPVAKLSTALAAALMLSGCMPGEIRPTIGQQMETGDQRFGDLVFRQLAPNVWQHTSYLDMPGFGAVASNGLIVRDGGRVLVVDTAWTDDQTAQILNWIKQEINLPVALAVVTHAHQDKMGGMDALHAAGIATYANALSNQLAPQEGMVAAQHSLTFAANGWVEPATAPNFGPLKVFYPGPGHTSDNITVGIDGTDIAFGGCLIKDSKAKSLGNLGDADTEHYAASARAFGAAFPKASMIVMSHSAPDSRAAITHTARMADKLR

Biological target: Metallo-beta-lactamase type 2 (Klebsiella pneumoniae) (UniProt C7C422)
Experiment: qHTS to identify inhibitors of the New Delhi Metallo-beta-lactamase (NDM): primary screen against the NCATS Gemini Collection; note: % of control where 0% means no effect
Conditions: NDM-1 enzyme, meropenem hydrolysis, absorbance 300 nm; at 38.4 µM (top of the series) unless noted
In short: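 Meropenem hydrolysis (50 uM final) by 2 nM NDM-1 read as 300 nm absorbance after 30 min, following >30 min compound–enzyme preincubation in HEPES pH 7.0 with 1 uM ZnSO4 and 0.01% Tween20.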

Activity % (negative = inhibition), inactive:
O=C(CC1CCN(C(=O)C2CCCCC2)C1)NCc1ccccc1 (stereo not given) 0.861%, COc1cccc(CNC(=O)Nc2cccc(-c3ccc(N4CCCCC4)nn3)c2)c1 24.3%, COc1cccc(C(=O)N2CC3(Cc4ccccc4N(C(C)=O)C3)C2)c1 0.921%, CC(NC(=O)OCc1ccccc1)c1nc2cccnc2n1C1CCCCC1 (stereo not given) 5.66%, O=C(Cn1c2c(c(=O)n1Cc1ccccc1)CCN(Cc1ccccc1)C2)NCc1cccc(Cl)c1 19.5%, COc1cccc(C(=O)NCC2CCCN(Cc3ccccn3)C2)c1OC (stereo not given) 2.43%, COC(=O)c1cc2n(n1)CCCN(C(=O)c1cc(C)nc3ccc(C)cc13)C2 1.48%, CSc1ccc(-c2cccc(C(=O)NCC(=O)N3CCOCC3)c2)cc1 11.7%, O=C(CCn1ccn2nc3c(c2c1=O)CCCC3)NCc1ccc(F)c(Cl)c1 33.4%, Cc1ccc(C(=O)N2CC[C@H](N3CCN(C)CC3)[C@H](CCCO)C2)cc1C -0.329%, Fc1ccccc1OCc1nc(C2CCCNC2)no1 (stereo not given) 4.54%, CCN1CCN(C2(C(=O)NCCC3CCCCO3)Cc3ccccc3C2)CC1 (stereo not given) 11.1%, Cc1ccc([C@@H]2CN(c3cc(N4CCC(O)CC4)ncn3)C[C@H]2N(C)C)cc1 -0.759%, COCCN1CCCC1c1nc(C2CN(C(=O)c3ncccc3C)C2)no1 (stereo not given) 9.05%, Cc1ccc(CNC(=O)N2CCCC3(CCC(=O)N(CC4CC4)C3)C2)cc1 (stereo not given) -4.58%, O=C(NCCCN1CCc2ccccc2C1)C1CCCCC(=O)N1Cc1ccccc1 (stereo not given) -1.46%, O=C(c1cc(F)ccc1F)N1CCC(Cc2noc(C3CC3)n2)C1 (stereo not given) 5.13%, COc1ccc(NC(=O)N2Cc3[nH]cnc3C[C@H]2c2nc(-c3ccc(C(F)(F)F)cc3)no2)cc1 5.38%, COc1ccc(CC(=O)N[C@H](C)c2onc(C)c2C(=O)O)cc1 11.1% [at 57.5 µM], O=c1n(CC2CC2)nc2n1CCN(S(=O)(=O)Cc1ccccc1)CC2 -0.737%, CC[C@H]1CN(Cc2ccc(OC)cc2O)CC[C@H]1CC(=O)N1CCOCC1 104% [at 57.5 µM], CCOc1ccccc1CN1CCC2(CCN(C(=O)c3ccccc3C)CC2)Oc2ccccc21 10.8%, CSCC(=O)N[C@H]1CCN2C(=O)c3cc(-c4ccc(Cl)cc4)ccc3NC(=O)[C@H]12 10.8% [at 57.5 µM], COC(=O)CNC(=O)c1cn2cc(-c3cccc(C(F)(F)F)c3)sc2n1 17.2%, N#Cc1cccc(C(=O)Nc2ccc([C@H]3OCC(=O)N(Cc4ccc(F)cc4)[C@@H]3CO)cc2)c1 5.95%, O=C1CCCCC(CNC(=O)c2ccc3ccccc3n2)N1 (stereo not given) 5.48%, CN1CCCC1c1nc(C2CN(S(=O)(=O)Cc3ccccc3F)C2)no1 (stereo not given) 7.58%, O=C(c1cc[nH]c1C1CCCNC1)N(Cc1ccc(F)cc1)Cc1cccnc1 (stereo not given) 6.68%, CCOc1cc2c(cn1)NCCN(Cc1ccncc1Cl)C2 5.21% [at 57.5 µM], Cc1nn(CC(=O)NC2CCCCC2)c(=O)c2nc(C(C)C)sc12 1.22%, OC[C@@H]1CN(Cc2ccc(F)cc2)C[C@H]1c1nc(-c2ccncc2)no1 -0.725%, COc1ccc(CCC(=O)N2CCOCCNC(=O)CC2)cc1 6.59%, O=C(c1cc(-n2cccn2)ccc1Cl)N1CCn2nc(CO)cc2C1 -2.11%, CC(=O)NC1CC2(CCN(C(=O)CCCNC(=O)OC(C)(C)C)CC2)Oc2ccccc21 (stereo not given) 14.2%, Cc1nn2c(c1-c1ccccc1[S+](C)(=O)[O-])N(CCCc1ccccc1)CCC2 7.93% [at 57.5 µM], O=C(CN1CC2CC(C1)[C@H]1CCCC(=O)N1C2)N1CCSCC1 (stereo not given in full) 0.707%, COC[C@H]1NC(=O)CC[C@H]1C(=O)N1CCN(c2cccc(C)c2)CC1 11%, CC(=O)N1CCC(N2CCOC[C@H]2c2ncc(-c3ccncc3)[nH]2)CC1 84.5% [at 57.5 µM], Cc1cc(C[C@@H]2COC[C@@H]2NC(=O)C2CCN(C(=O)C3CC3)CC2)on1 -0.984%, COC(=O)[C@H]1CCCN1C(=O)[C@@H]1C[C@H](NC(=O)NC(C)C)CN1C(=O)c1cccn1C -7.66% [at 57.5 µM], CN1CCN(c2ncnc3sc4c(c23)CCNC4)CC1 6.4%, CCCn1c(C)cnc1CC1CCN(S(=O)(=O)c2ccccc2)C1 (stereo not given) -1.33%, Cc1c(CO)cccc1NC(=O)c1ccc(CN2CCCC(C)C2)cc1 (stereo not given) 10.8%, O=C(C1CC1)N1CCC(Cc2nc(-c3ccc(F)cc3)no2)CC1 -2.61%, CCc1nc2cc(N3CCC(C(=O)NCc4cccnc4)CC3)cnc2nc1CC 0.652%, Cc1nc(C)c(C(=O)N2CCC3(CC2)CC(N(Cc2ccccc2)C2CC2)CCO3)s1 (stereo not given) 18.7%, O=C(NCCc1ccccn1)C1CCCN(c2nc(-c3ccccc3)nc3c2CCC3)C1 (stereo not given) 13.4%, CC(C)NC(=O)NC[C@H]1OC[C@@H](NC2CCCC2)[C@@H]1O 4.2% [at 77.1 µM], Oc1ccc(-c2ccc(-c3nc(CCc4ccccc4)no3)cn2)cc1 -2.08%, CC(C)NC(=O)C1CCc2nnc(CNC(=O)C3CC3)n21 (stereo not given) 47.4% [at 57.5 µM], CN1C[C@@H](NC(=O)NC2CCCCC2)C[C@H]1c1nc(-c2ccccn2)no1 5.53% [at 57.5 µM], CC(=O)N1CCCN(C(=O)c2ccc3c(c2)NC(C)(CCCCc2ccccc2)CO3)CC1 (stereo not given) -0.209%, COc1ccccc1CNC(=O)c1nn(CC2CC2)c2c1CNCC2 0.195%, COc1ccccc1CC(=O)N1CC[C@@H]2NC(=O)[C@H]3C[C@H](NC(=O)C4CCC4)CN3C(=O)[C@H]21 0.413%, CCN(CC)C(=O)c1csc(-c2cccc(OC(C)C)c2)n1 20.2%, Cc1cnc(C2CC2)n1C1CCCN(C(=O)c2ccoc2)C1 (stereo not given) 1.2%, CC(=O)Nc1ccc2c(c1)S(=O)(=O)N=C(CC(C)C)N2c1ccccc1 8.31%, CCn1ncc(CN2CCCCCNC(=O)[C@@H]3CCC[C@@H]32)c1C -1.71%, COC(=O)Nc1cc(C2CC2)nn1C 9.58% [at 57.5 µM], O=C(Nc1cc(Cl)cc(Cl)c1)c1ccn2nccc2c1 21.7% [at 57.5 µM], Cn1cc(-c2ccncc2)cc1C(=O)N1CCN(c2ccc(F)cc2)CC1 7.95%, CCc1cccc(NC(=O)[C@@H]2CN(S(C)(=O)=O)C[C@H]2c2ccncc2)c1 4.5%, COc1ccc(CC2(CO)CCN(c3nccc(N)n3)CC2)cc1 -0.827%, Cc1cnc(C(=O)N[C@@H]2CN(C3CCOCC3)C[C@H]2CN(C)C)cn1 -8.22%, O=C(N[C@@H]1CN(Cc2ccncc2F)C[C@H]1CO)C1CC1 -9.05%, COc1ccc(-c2nnc(C[C@@H]3C[C@@H](C(C)C)[C@H](CNCc4ccncc4)C=C3C)o2)cc1 11.2%, Cn1c(=O)c2ccnn2c2ccc(C(=O)NCC3CCN(Cc4ccccc4F)CC3)cc21 0.0386%, O=C(C1CCCC1)N1CCC2(CC1)CC(c1ccccc1)=NO2 0.65%, COc1cncc(Nc2ncc(-c3ccccc3OC)c3c2OCC3)c1 8.78% [at 57.5 µM], CCC(=O)N1C[C@@H]2CCCN3CCC[C@@H]([C@H]23)[C@H]1CCCC(=O)NC -6.06%, COc1ccc(S(=O)(=O)Nc2ccc(C)n(CC(=O)O)c2=O)cc1 38%, C=CCCC(CN1CCCOCC1)Oc1nccc(N(C)CC)n1 (stereo not given) 7.94%, O=C1O[C@@H]2CN(c3ncccn3)C[C@@H]2N1CCc1ccc(F)cc1 -0.225%, COCCNC(=O)NC[C@H]1O[C@@H]2C[C@@H](CC(=O)N3CCC(F)(F)C3)O[C@@H]2[C@@H]1O 3.27% [at 57.5 µM], COc1ccc(-c2noc(CC3CCN(C(=O)c4cc(F)ccc4F)CC3)n2)cc1 -1.45%, O=C(c1cc(F)ccc1F)N1CC(c2nc(CCc3ccccc3)no2)C1 -0.341%, N#Cc1cccc(C(=O)N2CCCOCCNC(=O)CC2)c1 -0.29%, COc1ccc(CNc2nccc(CCC(F)(F)F)n2)cc1OC 49.3%, O=c1[nH]c2cccnc2n1CCc1ccccc1 12.1% [at 57.5 µM], COc1ccc([C@@H](NC(=O)c2cc3ncccn3n2)C2CC(O)C2)cn1 (stereo not given in full) -0.651%, CN1C[C@H]2CNC[C@@]2(C(=O)NCc2ccccc2OCc2ccccc2)C1 0.0744%, CC(C)CN1C(=O)c2cccn2CC1CN (stereo not given) 0.344%, CCS(=O)(=O)N1CCC(Oc2cccc(C(=O)NCc3ccccn3)c2)CC1 51.5%, c1ccc(CN2CCC[C@H]2c2nc(-c3ccc(N4CCOCC4)nc3)no2)cc1 16.2% [at 57.5 µM], COCC1CCN(C(=O)[C@@H]2CN(c3cnccn3)C[C@H]2COC)CC1 -0.594%
